Reference: patent US20230346796A1 (priority 2010, published 2023)
Like-named read-outs stand apart in the source and are kept apart here.

System: patients undergoing a colonoscopy
Settings: ITT Population

Row | SMILES | No. of Top-up Doses, mean (SD) (5.0/3.0) | No. of Top-up Doses, mean (SD) (7.0/2.0 mg) | No. of Top-up Doses, mean (SD) (8.0/3.0 mg) | No. of Top-up Doses, mean (SD) (2.5/1.0 mg)
1 | COC(=O)CC[C@@H]1N=C(c2ccccn2)c2cc(Br)ccc2-n2c(C)cnc21 [CNS 7056, 3-[(4S)-8-bromo-1-methyl-6-(2-pyridinyl)-4H-imidazo[1,2-a][1,4]benzodiazepin-4-yl] propionic methyl ester] | 1.98 (1.64) | 2.35 (1.97) | 1.43 (1.52) | 
2 | Cc1ncc2n1-c1ccc(Cl)cc1C(c1ccccc1F)=NC2 [Midazolam, reference compound] |  |  |  | 2.48 (1.77)
